This assay deals with ovariectomized (ovex) rats. The assay can be described thus: 5-week ovex rat model of post-menopausal osteoporosis: femur density by X-ray grey scale image analysis. It is filed as in vivo. The following applies: for RANGE 0-60 (relative density of bone, femur X-ray grey scale): Table 3. The procedure:
In the following, a model of post-menopausal osteoporosis was used in which effects of different treatments upon femur density were determined.
Seventy-five day old female Sprague Dawley rats (weight range of 225 to 275 g) were obtained from Charles River Laboratories (Portage, Mich.). They were housed in groups of 3 and had ad libitum access to food (calcium content approximately 1%) and water. Room temperature was maintained at 22.2°±1.7° C. with a minimum relative humidity of 40%. The photoperiod in the room was 12 hours light and 12 hours dark.
One week after arrival, the rats underwent bilateral ovariectomy under anesthesia (44 mg/kg Ketamine and 5 mg/kg Xylazine (Butler, Indianapolis, Ind.) administered intramuscularly). Treatment with vehicle or the indicated compound was initiated either on the day of surgery following recovery from anesthesia or 35 days following the surgery.
Oral dosage was by gavage in 0.5 mL of 1% carboxymethylcellulose (CMC).
Body weight was determined at the time of surgery and weekly during the study, and the dosage was adjusted with changes in body weight. Vehicle-treated ovariectomized (ovex) rats and non-ovariectomized (intact) rats were evaluated in parallel with each experimental group to serve as negative and positive controls.
The rats were treated daily for 35 days (6 rats per treatment group) and sacrificed by decapitation on the 36th day. The 35-day time period was sufficient to allow maximal reduction in bone density, measured as described infra. At the time of sacrifice, the uteri were removed, dissected free of extraneous tissue, and the fluid contents were expelled before determination of wet weight in order to confirm estrogen deficiency associated with complete ovariectomy. […] The uteri were then placed in 10% neutral buffered formalin to allow for subsequent histological analysis.
The right femurs are excised and scanned at the distal metaphysis proximal from the growth plate region by grey scale image analysis of digitalized X-ray generation on a Nicolet NXR-1200 real time X-ray imaging system.

Marks after values point to notes of the source that are not given here.

Regarding `NCCCC(O)(P(=O)(O)O)P(=O)(O)O` [ALN, Alendronate], the “RANGE 0-50 (relative density of bone, femur X-ray grey scale)” value runs as follows: (Table 1, 0.1 mg/kg PO CDX, 47KV/4.5C, 35 days) 37.47; (Table 1, 1 mg/kg PO CDX, 47KV/4.5C, 35 days) 73.79*; (Table 2, 0.1 mg/kg PO CDX, 47KV/4.5C) 39.47; (Table 2, 1 mg/kg PO CDX) 65.60*. Also, the “RANGE 0-60 (relative density of bone, femur X-ray grey scale)” value is listed as 47.25 (0.1 mg/kg PO CDX, 47KV/4.5C) and 78.61* (1 mg/kg PO CDX).

The record behind these values is patent publication US20010051636A1, “Combination treatment for inhibiting bone loss” (priority 1994, published 2001).
